From article PMC9402233
No constants are given. Whether binding was seen depends on the method and setting. Binding seen in cells or lysates may run through a third protein. A yes stands for co-enrichment or nearness to the bait. Other partners may have been found. For some of these results: Tags and fused reporters may be left off the sequences shown.

Sequences of proteins named here, by UniProt entry; tags and fusion partners are left off.
UniProt P38181: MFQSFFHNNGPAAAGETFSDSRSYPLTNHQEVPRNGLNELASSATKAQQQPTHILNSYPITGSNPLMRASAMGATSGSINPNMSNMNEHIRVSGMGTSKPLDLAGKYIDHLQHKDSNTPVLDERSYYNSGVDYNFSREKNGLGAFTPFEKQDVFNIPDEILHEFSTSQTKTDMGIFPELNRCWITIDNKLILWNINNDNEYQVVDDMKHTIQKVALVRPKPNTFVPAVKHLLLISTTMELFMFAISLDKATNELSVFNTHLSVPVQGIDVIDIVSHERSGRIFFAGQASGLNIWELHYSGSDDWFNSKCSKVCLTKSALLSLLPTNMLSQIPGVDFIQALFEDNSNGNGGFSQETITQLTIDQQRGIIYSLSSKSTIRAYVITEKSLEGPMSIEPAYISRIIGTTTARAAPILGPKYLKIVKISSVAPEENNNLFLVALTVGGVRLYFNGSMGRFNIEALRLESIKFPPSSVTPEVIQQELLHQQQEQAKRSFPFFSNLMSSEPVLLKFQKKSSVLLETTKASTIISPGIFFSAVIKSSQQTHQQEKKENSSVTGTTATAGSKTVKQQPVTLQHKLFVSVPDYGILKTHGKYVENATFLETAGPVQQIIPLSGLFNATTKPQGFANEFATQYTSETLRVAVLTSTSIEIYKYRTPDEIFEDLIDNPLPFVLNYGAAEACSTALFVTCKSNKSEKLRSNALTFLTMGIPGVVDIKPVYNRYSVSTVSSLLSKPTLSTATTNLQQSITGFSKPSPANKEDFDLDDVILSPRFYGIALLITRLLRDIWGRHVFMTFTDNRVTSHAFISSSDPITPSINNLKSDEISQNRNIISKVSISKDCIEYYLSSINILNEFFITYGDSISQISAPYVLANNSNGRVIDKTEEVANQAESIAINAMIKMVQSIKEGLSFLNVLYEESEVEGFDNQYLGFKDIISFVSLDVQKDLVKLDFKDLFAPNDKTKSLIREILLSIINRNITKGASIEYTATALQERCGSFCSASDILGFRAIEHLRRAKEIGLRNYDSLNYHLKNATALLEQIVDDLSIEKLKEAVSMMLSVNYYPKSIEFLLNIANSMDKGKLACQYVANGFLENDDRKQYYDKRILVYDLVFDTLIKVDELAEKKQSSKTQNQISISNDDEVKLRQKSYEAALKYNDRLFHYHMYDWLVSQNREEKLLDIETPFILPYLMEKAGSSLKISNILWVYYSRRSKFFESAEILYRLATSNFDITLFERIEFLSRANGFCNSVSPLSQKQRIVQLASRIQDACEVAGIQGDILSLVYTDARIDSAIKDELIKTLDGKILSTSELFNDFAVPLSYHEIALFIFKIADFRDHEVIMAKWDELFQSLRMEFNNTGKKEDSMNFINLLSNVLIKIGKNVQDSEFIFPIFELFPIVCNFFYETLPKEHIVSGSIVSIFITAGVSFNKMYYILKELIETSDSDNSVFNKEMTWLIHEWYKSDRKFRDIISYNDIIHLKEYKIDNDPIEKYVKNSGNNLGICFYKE
UniProt P40457: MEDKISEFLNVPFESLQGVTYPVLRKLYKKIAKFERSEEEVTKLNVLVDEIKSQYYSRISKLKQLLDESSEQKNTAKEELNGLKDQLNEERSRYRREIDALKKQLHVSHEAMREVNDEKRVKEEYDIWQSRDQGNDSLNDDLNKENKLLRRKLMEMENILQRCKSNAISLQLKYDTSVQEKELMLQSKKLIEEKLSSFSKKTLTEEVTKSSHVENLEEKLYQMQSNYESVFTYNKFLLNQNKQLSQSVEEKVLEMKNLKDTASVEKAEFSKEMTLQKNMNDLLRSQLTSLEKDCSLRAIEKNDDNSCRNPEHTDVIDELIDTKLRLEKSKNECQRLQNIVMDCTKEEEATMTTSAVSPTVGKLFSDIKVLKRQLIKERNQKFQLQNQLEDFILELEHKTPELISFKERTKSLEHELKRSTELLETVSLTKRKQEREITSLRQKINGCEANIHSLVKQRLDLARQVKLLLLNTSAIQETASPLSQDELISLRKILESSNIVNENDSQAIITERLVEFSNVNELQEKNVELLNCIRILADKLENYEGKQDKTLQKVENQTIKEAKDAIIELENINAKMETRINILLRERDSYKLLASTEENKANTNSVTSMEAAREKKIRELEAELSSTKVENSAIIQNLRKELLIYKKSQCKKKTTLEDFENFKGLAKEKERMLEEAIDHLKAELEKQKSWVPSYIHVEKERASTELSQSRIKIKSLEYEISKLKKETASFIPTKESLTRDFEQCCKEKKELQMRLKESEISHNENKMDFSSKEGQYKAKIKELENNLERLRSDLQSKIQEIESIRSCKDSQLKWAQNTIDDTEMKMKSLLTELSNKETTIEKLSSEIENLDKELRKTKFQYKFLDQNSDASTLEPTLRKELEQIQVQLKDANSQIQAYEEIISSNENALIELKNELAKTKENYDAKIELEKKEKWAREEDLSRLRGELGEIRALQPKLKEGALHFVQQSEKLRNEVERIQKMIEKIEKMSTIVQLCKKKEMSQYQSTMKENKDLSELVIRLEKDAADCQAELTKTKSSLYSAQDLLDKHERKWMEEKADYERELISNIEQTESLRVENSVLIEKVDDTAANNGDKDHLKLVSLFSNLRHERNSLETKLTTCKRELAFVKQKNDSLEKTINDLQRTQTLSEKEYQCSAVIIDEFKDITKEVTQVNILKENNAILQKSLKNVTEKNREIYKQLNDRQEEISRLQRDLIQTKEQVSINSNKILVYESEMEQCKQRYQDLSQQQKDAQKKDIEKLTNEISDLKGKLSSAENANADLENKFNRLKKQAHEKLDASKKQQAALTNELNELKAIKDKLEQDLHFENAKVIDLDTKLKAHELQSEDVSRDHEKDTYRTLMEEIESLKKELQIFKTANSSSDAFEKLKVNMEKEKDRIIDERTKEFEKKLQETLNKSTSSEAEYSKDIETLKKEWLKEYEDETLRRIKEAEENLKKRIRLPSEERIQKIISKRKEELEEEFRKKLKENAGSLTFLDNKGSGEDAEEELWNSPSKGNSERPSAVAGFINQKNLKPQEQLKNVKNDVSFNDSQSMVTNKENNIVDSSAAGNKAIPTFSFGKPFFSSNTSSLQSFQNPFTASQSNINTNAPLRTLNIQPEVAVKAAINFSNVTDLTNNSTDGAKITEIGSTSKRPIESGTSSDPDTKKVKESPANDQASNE
UniProt Q02455: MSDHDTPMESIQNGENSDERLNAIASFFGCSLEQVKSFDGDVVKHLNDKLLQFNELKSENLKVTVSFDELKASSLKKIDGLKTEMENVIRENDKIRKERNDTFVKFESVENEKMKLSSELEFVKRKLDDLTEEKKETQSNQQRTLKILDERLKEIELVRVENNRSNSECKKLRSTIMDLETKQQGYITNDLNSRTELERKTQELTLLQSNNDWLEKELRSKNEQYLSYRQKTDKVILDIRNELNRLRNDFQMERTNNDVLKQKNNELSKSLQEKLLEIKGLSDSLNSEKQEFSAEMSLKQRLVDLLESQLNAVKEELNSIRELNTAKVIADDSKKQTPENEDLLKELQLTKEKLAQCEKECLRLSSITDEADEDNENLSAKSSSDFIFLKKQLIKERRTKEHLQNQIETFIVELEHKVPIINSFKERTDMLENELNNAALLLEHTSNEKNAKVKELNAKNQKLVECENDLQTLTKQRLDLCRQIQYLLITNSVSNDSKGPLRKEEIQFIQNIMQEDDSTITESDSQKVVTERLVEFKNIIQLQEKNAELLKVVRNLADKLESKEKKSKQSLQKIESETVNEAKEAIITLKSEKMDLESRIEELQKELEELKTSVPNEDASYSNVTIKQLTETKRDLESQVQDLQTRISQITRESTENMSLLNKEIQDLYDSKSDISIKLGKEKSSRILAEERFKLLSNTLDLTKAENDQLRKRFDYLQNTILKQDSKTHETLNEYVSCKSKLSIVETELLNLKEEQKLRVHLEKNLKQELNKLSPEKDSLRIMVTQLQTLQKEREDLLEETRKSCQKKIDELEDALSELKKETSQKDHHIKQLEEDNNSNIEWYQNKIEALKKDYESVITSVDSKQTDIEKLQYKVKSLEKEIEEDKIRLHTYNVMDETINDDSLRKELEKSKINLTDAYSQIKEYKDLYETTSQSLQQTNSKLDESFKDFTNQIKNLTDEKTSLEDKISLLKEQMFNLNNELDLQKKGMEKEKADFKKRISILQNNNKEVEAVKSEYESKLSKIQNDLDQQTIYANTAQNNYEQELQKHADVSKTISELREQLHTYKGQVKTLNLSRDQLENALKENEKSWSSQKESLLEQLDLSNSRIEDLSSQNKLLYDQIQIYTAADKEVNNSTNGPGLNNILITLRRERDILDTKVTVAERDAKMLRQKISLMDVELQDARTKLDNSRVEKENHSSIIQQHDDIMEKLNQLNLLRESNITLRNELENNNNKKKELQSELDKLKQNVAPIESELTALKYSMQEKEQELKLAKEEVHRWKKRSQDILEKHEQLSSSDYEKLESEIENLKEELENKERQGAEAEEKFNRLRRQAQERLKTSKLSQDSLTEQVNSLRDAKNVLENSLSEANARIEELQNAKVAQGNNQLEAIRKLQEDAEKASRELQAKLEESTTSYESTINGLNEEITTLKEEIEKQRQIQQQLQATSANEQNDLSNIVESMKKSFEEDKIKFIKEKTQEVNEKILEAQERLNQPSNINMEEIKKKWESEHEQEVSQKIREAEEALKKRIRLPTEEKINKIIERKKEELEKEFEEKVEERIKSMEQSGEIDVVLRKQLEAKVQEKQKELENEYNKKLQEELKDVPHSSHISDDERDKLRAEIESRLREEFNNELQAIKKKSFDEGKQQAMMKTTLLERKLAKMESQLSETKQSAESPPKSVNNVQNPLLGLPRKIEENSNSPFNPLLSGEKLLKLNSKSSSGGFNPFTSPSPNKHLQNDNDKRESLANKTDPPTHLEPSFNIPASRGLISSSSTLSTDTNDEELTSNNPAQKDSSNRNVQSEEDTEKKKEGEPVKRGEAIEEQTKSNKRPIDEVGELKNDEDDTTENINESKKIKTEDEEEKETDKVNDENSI
UniProt P39685: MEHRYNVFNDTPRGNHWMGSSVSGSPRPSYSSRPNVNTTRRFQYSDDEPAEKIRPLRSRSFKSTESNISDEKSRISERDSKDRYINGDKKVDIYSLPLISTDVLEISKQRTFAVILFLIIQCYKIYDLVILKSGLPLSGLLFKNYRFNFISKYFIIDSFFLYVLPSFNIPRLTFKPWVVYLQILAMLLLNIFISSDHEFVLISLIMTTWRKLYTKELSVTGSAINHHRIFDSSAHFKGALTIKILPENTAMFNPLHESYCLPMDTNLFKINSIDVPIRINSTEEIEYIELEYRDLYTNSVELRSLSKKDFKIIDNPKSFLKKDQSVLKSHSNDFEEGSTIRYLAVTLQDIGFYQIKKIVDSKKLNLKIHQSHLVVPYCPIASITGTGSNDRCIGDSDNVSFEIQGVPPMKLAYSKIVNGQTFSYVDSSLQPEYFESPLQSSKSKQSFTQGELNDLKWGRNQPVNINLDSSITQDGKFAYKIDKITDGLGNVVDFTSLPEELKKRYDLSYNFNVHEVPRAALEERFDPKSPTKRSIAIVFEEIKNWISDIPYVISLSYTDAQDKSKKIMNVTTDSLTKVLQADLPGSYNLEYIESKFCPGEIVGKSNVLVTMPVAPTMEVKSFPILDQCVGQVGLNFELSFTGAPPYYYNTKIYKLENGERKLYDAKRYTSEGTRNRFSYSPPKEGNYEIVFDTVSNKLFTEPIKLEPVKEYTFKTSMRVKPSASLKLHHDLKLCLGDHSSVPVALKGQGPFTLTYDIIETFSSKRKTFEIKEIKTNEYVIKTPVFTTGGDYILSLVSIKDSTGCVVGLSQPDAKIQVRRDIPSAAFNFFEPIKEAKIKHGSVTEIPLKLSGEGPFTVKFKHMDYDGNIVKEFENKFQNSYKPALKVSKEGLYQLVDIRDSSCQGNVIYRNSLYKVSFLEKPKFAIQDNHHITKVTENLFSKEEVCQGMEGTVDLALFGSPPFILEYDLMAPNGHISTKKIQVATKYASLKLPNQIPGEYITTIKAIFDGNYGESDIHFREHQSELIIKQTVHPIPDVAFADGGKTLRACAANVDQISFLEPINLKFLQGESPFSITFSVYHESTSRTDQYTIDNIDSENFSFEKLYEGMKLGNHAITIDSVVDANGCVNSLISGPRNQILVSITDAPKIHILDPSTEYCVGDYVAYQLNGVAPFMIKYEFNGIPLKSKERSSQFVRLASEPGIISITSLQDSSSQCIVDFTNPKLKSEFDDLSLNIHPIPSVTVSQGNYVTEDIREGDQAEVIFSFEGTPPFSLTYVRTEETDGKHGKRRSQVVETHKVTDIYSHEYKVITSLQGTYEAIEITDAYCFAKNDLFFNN

Experiments:
[1] = target: Nup170-S-TEV-ZZ (endogenously tagged Nup170) (S. cerevisiae) (UniProt P38181); assay: affinity purification with mass spectrometry; endogenously tagged Nup170-S-TEV-ZZ captured from lysate of Brl1-AID cells on IgG Dynabeads, 30 min at 4°C, same buffers; cells pulse labeled with heavy lysine and treated with auxin (500 µM) or ethanol for 4, 4.5 and 5 hr; DIA MS
[2] = target: T1, Brl1-S-TEV-ZZ (endogenously tagged Brl1) (S. cerevisiae) (UniProt P38770); assay: affinity purification with mass spectrometry; endogenously tagged Brl1-S-TEV-ZZ captured from yeast lysate on IgG Dynabeads, 30 min at 4°C; 20 mM HEPES pH 7.5, 50 mM KOAc, 20 mM NaCl, 2 mM MgCl2, 1 mM DTT, 10% glycerol, 0.5% Triton X-100, 0.1% Tween-20; unlabeled (label-free) and after pulse labeling with heavy lysine (KARMA; 30, 60, 90 min); DIA MS
T1 sequence: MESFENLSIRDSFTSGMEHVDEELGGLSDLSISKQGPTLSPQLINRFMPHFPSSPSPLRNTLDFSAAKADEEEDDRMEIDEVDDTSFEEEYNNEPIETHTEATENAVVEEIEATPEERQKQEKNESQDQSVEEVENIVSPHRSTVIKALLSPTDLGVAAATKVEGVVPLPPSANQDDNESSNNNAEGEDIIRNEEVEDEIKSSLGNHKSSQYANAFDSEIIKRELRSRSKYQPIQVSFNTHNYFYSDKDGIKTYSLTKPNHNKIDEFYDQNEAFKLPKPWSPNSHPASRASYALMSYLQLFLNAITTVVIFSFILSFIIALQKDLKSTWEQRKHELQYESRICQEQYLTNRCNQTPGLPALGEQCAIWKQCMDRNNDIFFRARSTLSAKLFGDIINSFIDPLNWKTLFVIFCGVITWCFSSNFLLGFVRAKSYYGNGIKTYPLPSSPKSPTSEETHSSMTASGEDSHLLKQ

| binding [1] | binding [2] | Substance |
| --- | --- | --- |
| binds |  | Mlp2 (from UniProt P40457 1-1679) |
| binds |  | Mlp1 (from UniProt Q02455 1-1875) |
|  | binds | Pom152 (from UniProt P39685 1-1337) |
|  | binds | Nup159 (from UniProt P40477 1-1460) |
